Experimental data: PubChem BioAssay AID1259425 (University of Nebraska Medical Center, 2018)
Assay: 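Find knockdowns that reproduce the gene expression pattern seen when KSR1 is lost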 (primary screen). Cell system: HCT116 human colon cancer cells. Knock-down reagent: siRNA pool against human genes, 50 nM siRNA. Measurement: 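After 50 nM siRNA pool, branched-DNA assay measures six marker transcripts per well, minus blank, normalised to the geometric mean of two housekeeping transcripts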. Direction: BNIP3L mRNA: higher = more BNIP3L transcript after knockdown; NDRG1 mRNA: higher = more NDRG1 transcript after knockdown; BNIP3 mRNA: higher = more BNIP3 transcript after knockdown; ALDOC mRNA: higher = more ALDOC transcript after knockdown; ACSL5 mRNA: higher = more ACSL5 transcript after knockdown.
Here is one part, drawn at random, of about 14,000 reagents tested. A reagent listed more than once was tested more than once; the source does not tell the runs apart. The record does not give: the time to read-out.

| Gene | BNIP3L mRNA, set 1 | NDRG1 mRNA, set 1 | BNIP3 mRNA, set 1 | ALDOC mRNA, set 1 | ACSL5 mRNA, set 1 |
| --- | --- | --- | --- | --- | --- |
| SURF4 | 0.0861 | 0.0733 | 0.332 | 0.0159 | 0.123 |
| PRKD1 | 0.231 | 0.193 | 1.13 | 0.0202 | 0.155 |
| IQCC | 0.055 | 0.171 | 0.3 | 0.00479 | 0.218 |
| GZMH | 0.167 | 0.0606 | 0.432 | 0.0373 | 0.0746 |
| AMDHD2 | 0.0944 | 0.147 | 0.22 | 0.0461 | 0.275 |
| TMEM260 | 0.0835 | 0.118 | 0.247 | 0.0244 | 0.179 |
| SPMAP2 | 0.0953 | 0.174 | 0.292 | 0.0451 | 0.0681 |
| TPK1 | 0.197 | 0.191 | 0.197 | 0.0237 | 0.301 |
| RAC3 | 0.0435 | 0.0488 | 0.186 | 0.00629 | 0.0593 |
| GPR37 | 0.455 | 0.311 | 0.864 | 0.0792 | 0.204 |
| ABCC13 | 0.0554 | 0.174 | 0.368 | 0.0297 | 0.0826 |
| PNMT | 0.136 | 0.133 | 0.404 | 0.0625 | 0.264 |
| SLC6A7 | 0.0832 | 0.0501 | 0.468 | 0.0102 | 0.0949 |
| MORF4L1 | 0.128 | 0.277 | 0.21 | 0.0664 | 0.271 |
| DBR1 | 0.169 | 0.227 | 0.576 | 0.0753 | 0.3 |
| GTPBP8 | 0.0932 | 0.078 | 0.224 | 0.032 | 0.121 |
| DNAH5 | 0.0825 | 0.133 | 0.236 | 0.0197 | 0.104 |
| NNMT | 0.144 | 0.548 | 0.271 | 0.039 | 0.171 |
| FAR2 | 0.111 | 0.323 | 0.17 | 0.0262 | 0.312 |
| XBP1 | 0.0772 | 0.391 | 0.178 | 0.0188 | 0.115 |
| NPC2 | 0.159 | 0.413 | 0.205 | 0.0384 | 0.141 |
| NHERF4 | 0.11 | 0.193 | 0.285 | 0.0341 | 0.172 |

Reformatted: 2 of the entries above.
Gene,"BNIP3L mRNA, set 1","NDRG1 mRNA, set 1","BNIP3 mRNA, set 1","ALDOC mRNA, set 1","ACSL5 mRNA, set 1"
SURF4,0.0861,0.0733,0.332,0.0159,0.123
PRKD1,0.231,0.193,1.13,0.0202,0.155

Next entries follow.
| Gene | BNIP3L mRNA, set 1 | NDRG1 mRNA, set 1 | BNIP3 mRNA, set 1 | ALDOC mRNA, set 1 | ACSL5 mRNA, set 1 |
| --- | --- | --- | --- | --- | --- |
| CDK11A | 0.0698 | 0.116 | 0.25 | 0.00132 | 0.234 |
| GATD3 | 0.119 | 0.132 | 0.285 | 0.00543 | 0.14 |
| BBLN | 0.089 | 0.205 | 0.338 | 0.0438 | 0.317 |
| RANBP1 | 0.0702 | 0.184 | 0.294 | 0.0115 | 0.125 |
| SARAF | 0.0398 | 0.0948 | 0.242 | 0.0118 | 0.242 |
| GRK6 | 0.146 | 0.29 | 0.25 | 0.0206 | 0.223 |
| GRK6 | 0.132 | 0.221 | 0.284 | 0.00497 | 0.526 |
| TUBGCP2 | 0.104 | 0.0865 | 0.302 | 0.029 | 0.0986 |
| TAAR2 | 0.144 | 0.0972 | 0.399 | 0.0315 | 0.226 |
| NGFR | 0.107 | 0.239 | 0.272 | 0.00974 | 0.097 |
| PCDHB14 | 0.0872 | 0.195 | 0.34 | 0.0106 | 0.135 |
| SF3B6 | 0.145 | 0.354 | 0.453 | 0.0509 | 0.192 |
